{
  "source": "paper PMC9995517",
  "binders": {"B1": {"name": "recombinant GST-tagged PLS3 (protein, UniProt P13797 1-630)", "chain": "MDEMATTQISKDELDELKEAFAKVDLNSNGFICDYELHELFKEANMPLPGYKVREIIQKLMLDGDRNKDGKISFDEFVYIFQEVKSSDIAKTFRKAINRKEGICALGGTSELSSEGTQHSYSEEEKYAFVNWINKALENDPDCRHVIPMNPNTDDLFKAVGDGIVLCKMINLSVPDTIDERAINKKKLTPFIIQENLNLALNSASAIGCHVVNIGAEDLRAGKPHLVLGLLWQIIKIGLFADIELSRNEALAALLRDGETLEELMKLSPEELLLRWANFHLENSGWQKINNFSADIKDSKAYFHLLNQIAPKGQKEGEPRIDINMSGFNETDDLKRAESMLQQADKLGCRQFVTPADVVSGNPKLNLAFVANLFNKYPALTKPENQDIDWTLLEGETREERTFRNWMNSLGVNPHVNHLYADLQDALVILQLYERIKVPVDWSKVNKPPYPKLGANMKKLENCNYAVELGKHPAKFSLVGIGGQDLNDGNQTLTLALVWQLMRRYTLNVLEDLGDGQKANDDIIVNWVNRTLSEAGKSTSIQSFKDKTISSSLAVVDLIDAIQPGCINYDLVKSGNLTEDDKHNNAKYAVSMARRIGARVYALPEDLVEVKPKMVMTVFACLMGRGMKRV"}},
  "key": {"[1]": {"molecular_target": "T1, tyrosyl-tRNA synthetase, wild type, recombinant Xpress-6xHis tagged (His-YARS1^WT) (human) (UniProt P54577)", "T1 sequence": "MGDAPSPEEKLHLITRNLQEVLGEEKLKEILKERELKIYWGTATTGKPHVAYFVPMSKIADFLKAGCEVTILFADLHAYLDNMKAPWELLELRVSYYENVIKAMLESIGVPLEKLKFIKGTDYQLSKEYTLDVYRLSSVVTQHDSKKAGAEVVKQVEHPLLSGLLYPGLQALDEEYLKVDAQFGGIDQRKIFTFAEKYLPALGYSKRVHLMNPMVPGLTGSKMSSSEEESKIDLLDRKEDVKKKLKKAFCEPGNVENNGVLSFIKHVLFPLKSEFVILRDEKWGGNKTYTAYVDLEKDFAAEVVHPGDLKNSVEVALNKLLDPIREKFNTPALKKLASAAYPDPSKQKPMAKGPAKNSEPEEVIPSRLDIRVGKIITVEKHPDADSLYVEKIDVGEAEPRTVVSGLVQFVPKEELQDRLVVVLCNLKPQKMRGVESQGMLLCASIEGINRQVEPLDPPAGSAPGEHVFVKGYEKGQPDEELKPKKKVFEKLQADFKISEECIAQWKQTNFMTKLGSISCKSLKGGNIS", "test": "co-IP; recombinant GST-PLS3 (2 µg) with recombinant His-YARS1 (2 µg) in PBS with 0.05% Tween-20, pH 7.4, 1 h at 4 °C; YARS1 immunoprecipitated with YARS antibody; Western blot for YARS1 and PLS3; both purified"}, "[2]": {"molecular_target": "T1, tyrosyl-tRNA synthetase, wild type, recombinant Xpress-6xHis tagged (His-YARS1^WT) (human)", "test": "pull-down; recombinant His-YARS1 preincubated individually with GST-PLS3 or α-actinin and magnetic Dynabeads, 20 min at room temperature; 50 mM NaP pH 8.0, 300 mM NaCl, 0.01% Tween-20; four washes; imidazole elution; SDS-PAGE, Coomassie; both purified"}},
  "note": "Results are given in words; binding and its absence hold for the method and conditions named. Tags and fused reporters may be left off the sequences shown.",
  "data": [
    {"binder": "B1", "values": [
      {"measurement": "binding", "setting": "[1]", "value": "no binding (tested: 2 µg of each protein)"},
      {"measurement": "binding", "setting": "[2]", "value": "no binding"}
    ]}
  ]
}
